Test system: human osteoprogenitor cells
Experiment: Peptide binding: attachment and spreading of human osteoprogenitor cells on coated plates
Type: cell-based
Conditions: no antibody
Description: Example 11 analyzes the binding and cell spread activity of various peptides. The activities were measured in 24-well plates that were coated overnight at 4° C. with 10 μg/ml of the indicated ligand or peptide and then blocked for one hour at room temperature with 10 mg/ml BSA (Bovine Serum Albumin) in PBS (Phosphate Buffered Saline). To preserve the integrity of the adhesion receptors osteoprogenitor cells were harvested from sub-confluent cultures by non-enzymatic cell dissociation solution (Sigma, St. Louis, Mo.). Cells were washed twice with PBS and re-suspended at a concentration of 1×10^5 cells/ml of sterile Ca^2+- and Mg^2+-free PBS, supplemented with 0.1% BSA and 1 mM sodium pyruvate. […] The total number of attached or spread cells in each well were counted microscopically using a Nikon Eclipse microscope equipped with a Sony digital camera. Total number of attached or spread cells were quantified using an Optima 5.2 image analysis system. […] To minimize variability inherent to cell attachment studies cells were scored as attached only when a defined nucleus observed accompanied by a transition from round to cuboidal cell morphology. Round cells that are loosely attached with no defined nucleus were scored as non-attached. […] Cell spreading was determined by membrane contour analysis and was scored according to increase in cell volume/surface area. […]

B1: RSRRATEVFTPVVPTVDTYDGRGDSVVYGRRSKSKKFRRPAGAAGG PAGPAG PAGPAGPAGPA (peptide)
chain: RSRRATEVFTPVVPTVDTYDGRGDSVVYGRRSKSKKFRRPAGAAGGPAGPAGPAGPAGPAGPA
% Spread: 91.6%
% total attached cells: 84.6%
